Laboratory results from the supplement of paper PMC10849652.
Some of the results follow.

Amino acid sequences for entries named in this document (tags omitted). A change or cut given only in a name is not applied to a line headed by its entry.
UniProt Q12874: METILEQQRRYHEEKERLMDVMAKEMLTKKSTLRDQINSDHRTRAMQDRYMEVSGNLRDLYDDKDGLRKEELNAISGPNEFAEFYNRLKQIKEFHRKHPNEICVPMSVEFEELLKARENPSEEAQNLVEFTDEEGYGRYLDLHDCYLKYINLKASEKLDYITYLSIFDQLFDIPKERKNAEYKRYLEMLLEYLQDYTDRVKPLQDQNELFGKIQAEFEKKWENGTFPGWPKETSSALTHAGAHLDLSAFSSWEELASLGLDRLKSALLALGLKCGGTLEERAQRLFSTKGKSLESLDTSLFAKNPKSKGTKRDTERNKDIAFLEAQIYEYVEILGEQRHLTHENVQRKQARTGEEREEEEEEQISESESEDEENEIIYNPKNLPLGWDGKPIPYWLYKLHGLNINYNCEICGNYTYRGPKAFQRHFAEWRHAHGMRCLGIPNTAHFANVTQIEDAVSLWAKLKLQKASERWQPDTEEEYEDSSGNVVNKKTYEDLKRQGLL
UniProt Q9UHW9: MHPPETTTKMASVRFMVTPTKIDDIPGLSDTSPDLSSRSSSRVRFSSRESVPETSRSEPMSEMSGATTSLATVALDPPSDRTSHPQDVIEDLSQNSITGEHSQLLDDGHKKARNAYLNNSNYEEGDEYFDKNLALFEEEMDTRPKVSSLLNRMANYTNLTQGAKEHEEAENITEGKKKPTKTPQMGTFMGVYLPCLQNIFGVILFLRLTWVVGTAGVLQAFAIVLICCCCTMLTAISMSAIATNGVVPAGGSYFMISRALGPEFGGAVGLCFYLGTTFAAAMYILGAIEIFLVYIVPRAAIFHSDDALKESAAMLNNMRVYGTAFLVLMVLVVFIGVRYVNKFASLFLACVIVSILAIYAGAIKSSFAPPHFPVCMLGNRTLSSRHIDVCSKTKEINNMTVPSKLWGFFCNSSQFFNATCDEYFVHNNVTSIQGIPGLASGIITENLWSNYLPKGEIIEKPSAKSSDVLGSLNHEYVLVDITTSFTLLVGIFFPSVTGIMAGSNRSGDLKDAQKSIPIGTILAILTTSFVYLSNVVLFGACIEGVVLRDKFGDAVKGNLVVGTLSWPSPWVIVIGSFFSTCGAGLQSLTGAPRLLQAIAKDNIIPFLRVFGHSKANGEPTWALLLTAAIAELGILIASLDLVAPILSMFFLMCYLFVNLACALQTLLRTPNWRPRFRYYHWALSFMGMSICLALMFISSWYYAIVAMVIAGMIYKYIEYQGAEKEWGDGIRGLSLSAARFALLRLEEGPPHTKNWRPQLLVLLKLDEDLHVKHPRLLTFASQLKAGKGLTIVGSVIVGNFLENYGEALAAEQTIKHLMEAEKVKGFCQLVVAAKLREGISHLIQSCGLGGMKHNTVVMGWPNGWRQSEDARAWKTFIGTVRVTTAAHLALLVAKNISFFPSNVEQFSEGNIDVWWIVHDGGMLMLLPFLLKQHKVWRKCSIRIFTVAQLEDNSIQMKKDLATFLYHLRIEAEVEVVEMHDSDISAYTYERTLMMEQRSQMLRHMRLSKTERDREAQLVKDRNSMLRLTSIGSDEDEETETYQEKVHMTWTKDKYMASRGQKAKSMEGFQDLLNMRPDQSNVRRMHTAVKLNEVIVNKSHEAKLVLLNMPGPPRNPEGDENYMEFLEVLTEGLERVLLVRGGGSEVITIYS
UniProt Q96EQ0: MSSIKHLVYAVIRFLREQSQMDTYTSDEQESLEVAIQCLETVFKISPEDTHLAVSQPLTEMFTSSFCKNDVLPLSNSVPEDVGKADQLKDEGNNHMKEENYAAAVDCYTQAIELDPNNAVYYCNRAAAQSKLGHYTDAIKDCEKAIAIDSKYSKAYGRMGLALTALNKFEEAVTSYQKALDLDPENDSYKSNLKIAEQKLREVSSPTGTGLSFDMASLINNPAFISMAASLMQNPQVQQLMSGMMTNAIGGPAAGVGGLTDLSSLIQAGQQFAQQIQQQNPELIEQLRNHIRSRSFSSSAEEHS
UniProt Q9H9B4: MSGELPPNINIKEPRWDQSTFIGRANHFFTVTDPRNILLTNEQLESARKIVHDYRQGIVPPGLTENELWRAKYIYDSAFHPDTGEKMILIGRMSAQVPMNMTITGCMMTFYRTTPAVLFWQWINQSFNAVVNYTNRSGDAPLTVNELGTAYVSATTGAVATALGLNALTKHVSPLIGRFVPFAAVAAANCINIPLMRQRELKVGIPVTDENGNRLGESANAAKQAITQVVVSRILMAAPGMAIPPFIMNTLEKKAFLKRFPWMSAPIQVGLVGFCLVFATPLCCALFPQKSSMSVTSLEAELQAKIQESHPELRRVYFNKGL
UniProt O43765: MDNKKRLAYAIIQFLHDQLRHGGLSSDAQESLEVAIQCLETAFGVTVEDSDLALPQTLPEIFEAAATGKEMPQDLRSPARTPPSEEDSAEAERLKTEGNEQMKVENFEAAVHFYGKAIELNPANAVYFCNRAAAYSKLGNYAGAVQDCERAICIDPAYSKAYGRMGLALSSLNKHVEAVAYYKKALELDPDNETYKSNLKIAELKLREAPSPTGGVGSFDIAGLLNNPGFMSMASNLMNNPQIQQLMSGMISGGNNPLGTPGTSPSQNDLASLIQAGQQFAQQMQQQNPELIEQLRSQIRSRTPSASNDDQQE
UniProt Q15459: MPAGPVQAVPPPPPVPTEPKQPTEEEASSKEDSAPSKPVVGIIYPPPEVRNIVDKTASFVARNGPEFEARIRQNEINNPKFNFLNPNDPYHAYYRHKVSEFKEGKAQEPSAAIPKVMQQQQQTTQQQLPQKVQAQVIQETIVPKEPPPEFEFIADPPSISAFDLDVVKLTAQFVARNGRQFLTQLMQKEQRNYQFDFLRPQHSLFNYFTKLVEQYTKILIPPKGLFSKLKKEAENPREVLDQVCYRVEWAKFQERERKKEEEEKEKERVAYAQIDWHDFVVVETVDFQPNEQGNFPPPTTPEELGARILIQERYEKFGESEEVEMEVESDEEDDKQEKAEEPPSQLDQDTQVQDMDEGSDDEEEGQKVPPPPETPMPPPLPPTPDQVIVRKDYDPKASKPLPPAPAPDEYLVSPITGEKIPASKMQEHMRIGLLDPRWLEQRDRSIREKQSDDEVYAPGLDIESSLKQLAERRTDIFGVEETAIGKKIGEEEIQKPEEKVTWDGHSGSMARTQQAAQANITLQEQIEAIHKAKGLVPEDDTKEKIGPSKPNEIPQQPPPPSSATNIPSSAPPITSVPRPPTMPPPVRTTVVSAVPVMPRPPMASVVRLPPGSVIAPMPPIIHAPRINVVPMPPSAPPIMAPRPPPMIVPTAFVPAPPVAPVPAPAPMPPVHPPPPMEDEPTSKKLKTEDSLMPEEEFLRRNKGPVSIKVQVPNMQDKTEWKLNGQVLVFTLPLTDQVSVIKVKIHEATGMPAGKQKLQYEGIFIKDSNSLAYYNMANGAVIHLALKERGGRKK
UniProt P50454: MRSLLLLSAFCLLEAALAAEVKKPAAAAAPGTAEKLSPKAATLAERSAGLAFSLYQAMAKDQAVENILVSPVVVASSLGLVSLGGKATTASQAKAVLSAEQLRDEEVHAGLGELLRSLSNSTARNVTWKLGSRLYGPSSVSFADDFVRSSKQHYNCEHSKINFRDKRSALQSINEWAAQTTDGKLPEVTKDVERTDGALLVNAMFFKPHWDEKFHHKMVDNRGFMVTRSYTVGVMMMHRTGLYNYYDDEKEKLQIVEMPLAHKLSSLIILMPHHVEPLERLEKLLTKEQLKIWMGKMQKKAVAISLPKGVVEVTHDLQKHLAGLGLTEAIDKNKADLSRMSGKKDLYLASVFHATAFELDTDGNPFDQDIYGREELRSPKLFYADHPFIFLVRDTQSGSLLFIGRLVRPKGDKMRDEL
UniProt Q96BD8: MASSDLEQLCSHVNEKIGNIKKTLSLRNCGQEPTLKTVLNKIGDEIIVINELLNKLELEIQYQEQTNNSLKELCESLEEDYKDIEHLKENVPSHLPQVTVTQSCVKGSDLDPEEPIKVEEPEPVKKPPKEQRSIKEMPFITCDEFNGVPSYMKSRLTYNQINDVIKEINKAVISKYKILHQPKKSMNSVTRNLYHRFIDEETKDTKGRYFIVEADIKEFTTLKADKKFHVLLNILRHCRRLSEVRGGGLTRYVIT
UniProt Q12872: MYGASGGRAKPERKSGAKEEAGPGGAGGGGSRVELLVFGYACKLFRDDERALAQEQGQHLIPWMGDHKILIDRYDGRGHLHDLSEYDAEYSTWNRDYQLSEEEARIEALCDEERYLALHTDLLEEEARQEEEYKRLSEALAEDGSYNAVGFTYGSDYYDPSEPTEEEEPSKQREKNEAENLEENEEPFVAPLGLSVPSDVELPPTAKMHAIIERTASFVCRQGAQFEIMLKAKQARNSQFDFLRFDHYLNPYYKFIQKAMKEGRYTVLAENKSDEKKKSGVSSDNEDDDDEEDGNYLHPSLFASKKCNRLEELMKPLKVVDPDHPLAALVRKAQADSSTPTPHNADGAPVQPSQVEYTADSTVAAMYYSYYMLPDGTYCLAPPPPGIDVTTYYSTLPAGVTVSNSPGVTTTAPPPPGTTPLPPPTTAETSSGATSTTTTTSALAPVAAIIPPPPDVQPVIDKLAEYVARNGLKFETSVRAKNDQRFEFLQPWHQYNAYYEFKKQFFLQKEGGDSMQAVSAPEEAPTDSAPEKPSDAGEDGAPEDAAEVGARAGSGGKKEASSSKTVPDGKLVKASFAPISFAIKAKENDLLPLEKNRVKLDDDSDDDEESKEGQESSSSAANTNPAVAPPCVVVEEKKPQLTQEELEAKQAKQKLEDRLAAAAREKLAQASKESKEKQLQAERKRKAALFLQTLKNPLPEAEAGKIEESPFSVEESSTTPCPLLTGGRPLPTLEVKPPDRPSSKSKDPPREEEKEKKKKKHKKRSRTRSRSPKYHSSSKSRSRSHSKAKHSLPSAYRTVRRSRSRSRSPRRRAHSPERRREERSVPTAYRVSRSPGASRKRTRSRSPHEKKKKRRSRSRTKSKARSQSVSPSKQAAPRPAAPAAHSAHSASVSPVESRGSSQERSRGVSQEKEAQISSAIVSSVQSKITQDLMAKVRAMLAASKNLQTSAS
UniProt Q15428: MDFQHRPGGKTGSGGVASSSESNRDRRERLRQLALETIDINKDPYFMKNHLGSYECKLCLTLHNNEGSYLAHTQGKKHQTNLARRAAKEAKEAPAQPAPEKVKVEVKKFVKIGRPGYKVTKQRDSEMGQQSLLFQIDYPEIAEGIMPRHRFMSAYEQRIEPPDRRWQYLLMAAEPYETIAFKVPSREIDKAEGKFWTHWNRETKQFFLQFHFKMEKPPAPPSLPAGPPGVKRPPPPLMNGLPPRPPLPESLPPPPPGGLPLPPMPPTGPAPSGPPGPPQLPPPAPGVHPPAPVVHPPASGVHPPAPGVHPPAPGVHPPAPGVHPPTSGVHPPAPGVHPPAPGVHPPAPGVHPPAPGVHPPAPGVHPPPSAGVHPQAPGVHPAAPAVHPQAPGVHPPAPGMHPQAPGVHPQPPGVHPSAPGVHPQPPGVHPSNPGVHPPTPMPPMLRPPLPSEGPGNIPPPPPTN
UniProt P34896: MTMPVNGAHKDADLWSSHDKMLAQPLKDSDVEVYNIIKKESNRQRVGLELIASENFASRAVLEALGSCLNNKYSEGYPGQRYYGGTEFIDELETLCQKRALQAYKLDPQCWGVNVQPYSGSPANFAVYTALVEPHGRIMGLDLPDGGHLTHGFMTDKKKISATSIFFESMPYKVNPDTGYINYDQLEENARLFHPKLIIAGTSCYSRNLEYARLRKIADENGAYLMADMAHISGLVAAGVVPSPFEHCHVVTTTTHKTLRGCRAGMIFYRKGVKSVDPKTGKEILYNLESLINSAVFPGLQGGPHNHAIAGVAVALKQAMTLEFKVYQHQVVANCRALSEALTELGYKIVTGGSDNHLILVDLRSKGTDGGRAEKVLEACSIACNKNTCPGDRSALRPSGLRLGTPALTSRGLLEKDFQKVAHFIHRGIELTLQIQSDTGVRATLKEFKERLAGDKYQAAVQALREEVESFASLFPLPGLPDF
UniProt Q5FBB7: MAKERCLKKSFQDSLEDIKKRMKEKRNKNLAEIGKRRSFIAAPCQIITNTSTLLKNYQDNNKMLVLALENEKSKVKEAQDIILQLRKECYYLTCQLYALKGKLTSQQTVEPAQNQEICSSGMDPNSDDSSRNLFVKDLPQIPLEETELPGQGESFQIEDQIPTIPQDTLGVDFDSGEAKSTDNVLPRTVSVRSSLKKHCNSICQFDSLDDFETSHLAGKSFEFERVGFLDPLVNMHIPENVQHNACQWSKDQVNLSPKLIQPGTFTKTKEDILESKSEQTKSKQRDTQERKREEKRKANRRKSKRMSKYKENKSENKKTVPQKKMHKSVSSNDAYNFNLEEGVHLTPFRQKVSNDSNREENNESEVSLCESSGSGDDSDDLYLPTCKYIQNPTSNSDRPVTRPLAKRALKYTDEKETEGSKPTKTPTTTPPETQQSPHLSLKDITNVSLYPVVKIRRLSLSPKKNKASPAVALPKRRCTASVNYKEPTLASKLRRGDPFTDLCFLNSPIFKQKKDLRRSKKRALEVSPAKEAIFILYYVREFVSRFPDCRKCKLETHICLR

Legend:
Test in all cases: log2 fold change, soluble protein after heating vs DMSO (PISA); higher = thermal stabilisation; K562 lysate, 10 uM; active = over 0.2 and 3.5 SD of the protein, either way, in both replicates (recomputed)
vemurafenib = compound: CCCS(=O)(=O)Nc1ccc(F)c(C(=O)c2c[nH]c3ncc(-c4ccc(Cl)cc4)cc23)c1F [vemurafenib]
Method in brief: (§1)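 Quantification was by TMTpro 16plex LC-MS/MS with equalised channel sums, applied to the supernatant after 21,000xg for 90 min. Samples were crude K562 extract at 1 mg/mL protein in PBS pH 7.4 with 1 mM MgCl2, treated with 10 μM compound for 30 min, heated for 3 min across 48°C-58°C, pooled and brought to 0.5% NP-40 at 4°C. Values are log-two fold changes in thermal stability relative to solvent controls, from duplicates.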

[1] = compound: CCCS(=O)(=O)Nc1ccc(F)c(C(=O)c2c[nH]c3ncc(Cl)cc23)c1F
Method in brief: as §1

barasertib = compound: CCN(CCCOc1ccc2c(Nc3cc(CC(=O)Nc4cccc(F)c4)[nH]n3)ncnc2c1)CCOP(=O)(O)O [barasertib]
Method in brief: as §1

[2] = compound: CC[C@@H]1C(=O)N(C)c2cnc(Nc3ccc(C(=O)NC4CCN(C)CC4)cc3OC)nc2N1C1CCCC1
Method in brief: as §1

volasertib = compound: CC[C@@H]1C(=O)N(C)c2cnc(Nc3ccc(C(=O)N[C@H]4CC[C@H](N5CCN(CC6CC6)CC5)CC4)cc3OC)nc2N1C(C)C [volasertib]
Method in brief: as §1

[3] = compound: CCn1c(C(=O)N(C2CC2)C2CC2)cc2c3c(ncn3C)c(Nc3cc(C)n(C)n3)nc21
Method in brief: as §1

[4] = compound: CCn1cc(-c2ccnc3[nH]c(-c4cccc(CN(C)C)c4)cc23)c(-c2ccc(NC(=O)N(C)C)cc2)n1
Method in brief: as §1

[5] = compound: CN1CCC(CNc2ccc3ncc(-c4cccc(OC(F)(F)F)c4)n3n2)CC1
Method in brief: as §1

saracatinib = compound: CN1CCN(CCOc2cc(OC3CCOCC3)c3c(Nc4c(Cl)ccc5c4OCO5)ncnc3c2)CC1 [saracatinib]
Method in brief: as §1

sotrastaurin = compound: CN1CCN(c2nc(C3=C(c4c[nH]c5ccccc45)C(=O)NC3=O)c3ccccc3n2)CC1 [sotrastaurin]
Method in brief: as §1

alvocidib = compound: CN1CC[C@H](c2c(O)cc(O)c3c(=O)cc(-c4ccccc4Cl)oc23)[C@H](O)C1 [alvocidib]
Method in brief: as §1

Tubastatin A = compound: CN1CCc2c(c3ccccc3n2Cc2ccc(C(=O)NO)cc2)C1 [Tubastatin A]
Method in brief: as §1

[6] = compound: CNC(=O)C1=CC=CC=C1NC2=NC(=NC=C2Cl)NC3=C(C=C(C=C3)N4CCOCC4)OC
Method in brief: as §1

defactinib = compound: CNC(=O)c1ccc(Nc2ncc(C(F)(F)F)c(NCc3nccnc3N(C)S(C)(=O)=O)n2)cc1 [defactinib]
Method in brief: as §1

[7] = compound: CNc1nc(-c2ccc3c(N)n[nH]c3c2)cc(N2C[C@@H](C(=O)NC3CCCCC3)CC[C@H]2C)n1
Method in brief: as §1

encorafenib = compound: COC(=O)N[C@@H](C)CNc1nccc(-c2cn(C(C)C)nc2-c2cc(Cl)cc(NS(C)(=O)=O)c2F)n1 [encorafenib]
Method in brief: as §1

[8] = compound: COC(=O)[C@H](CCSC)NC(=O)C1=C(C=C(C=C1)NC[C@H](CS)N)C2=CC=CC=C2
Method in brief: as §1

alisertib = compound: COc1cc(Nc2ncc3c(n2)-c2ccc(Cl)cc2C(c2c(F)cccc2OC)=NC3)ccc1C(=O)O [alisertib]
Method in brief: as §1

[9] = compound: COc1cc2nc(-c3cc(F)ccc3O)nc(N[C@@H]3CNC[C@H]3C(C)(C)O)c2cc1OC
Method in brief: as §1

gefitinib = compound: COc1cc2ncnc(Nc3ccc(F)c(Cl)c3)c2cc1OCCCN1CCOCC1 [gefitinib]
Method in brief: as §1

Target	log2 fold change (vemurafenib)	log2 fold change [1]	log2 fold change (barasertib)	log2 fold change [2]	log2 fold change (volasertib)	log2 fold change [3]	log2 fold change [4]	log2 fold change [5]	log2 fold change (saracatinib)	log2 fold change (sotrastaurin)	log2 fold change (alvocidib)	log2 fold change (Tubastatin A)	log2 fold change [6]	log2 fold change (defactinib)	log2 fold change [7]	log2 fold change (encorafenib)	log2 fold change [8]	log2 fold change (alisertib)	log2 fold change [9]	log2 fold change (gefitinib)
SF3A3 (UniProt Q12874)	inactive: 0.017	inactive: -0.007	inactive: -0.061	inactive: -0.064	inactive: -0.032	inactive: 0.01	inactive: 0.094	inactive: -0.05	inactive: 0.012	inactive: 0.007	inactive: 0.042	inactive: -0.154	inactive: -0.023	inactive: -0.024	inactive: -0.118	inactive: 0.005	inactive: 0.098	inactive: 0.014	inactive: -0.012	inactive: 0.017
SLC12A6 (UniProt Q9UHW9)	inactive: 0.015	inactive: 0.021	inactive: 0.002	inactive: 0.037	inactive: 0.002	inactive: 0.008	inactive: -0.06	inactive: 0.012	inactive: -0.003	inactive: -0.01	inactive: -0.03	inactive: 0.03	inactive: 0.065	inactive: 0.006	inactive: -0.038	inactive: 0.034	inactive: -0.021	inactive: -0.006	inactive: 0.004	inactive: 0.093
SGTB (UniProt Q96EQ0)	inactive: 0.023	inactive: -0.001	inactive: 0.034	inactive: -0.021	inactive: 0.012	inactive: 0.04	inactive: 0.028	inactive: -0.047	inactive: -0.01	inactive: -0.013	inactive: 0.087	inactive: 0.028	inactive: 0	inactive: 0.026	inactive: -0.063	inactive: -0.016	inactive: -0.028	inactive: -0.006	inactive: -0.026	inactive: 0.011
SERBP1 (UniProt Q8NC51)	inactive: -0.039	inactive: -0.012	inactive: -0.043	inactive: 0.119	inactive: 0.028	inactive: -0.017	inactive: 0.29	inactive: -0.03	inactive: -0.028	inactive: -0.003	inactive: 0.027	inactive: 0.057	inactive: 0.018	inactive: -0.041	inactive: 0.029	inactive: -0.035	inactive: -0.02	inactive: 0.007	inactive: -0.014	inactive: 0.017
SFXN1 (UniProt Q9H9B4)	inactive: -0.047	inactive: -0.023	inactive: 0.051	inactive: 0.001	inactive: 0.021	inactive: 0.034	inactive: -0.035	inactive: -0.115	inactive: 0.005	inactive: -0.001	inactive: 0	inactive: -0.001	inactive: -0.006	inactive: 0.002	inactive: -0.021	inactive: 0.01	inactive: -0.01	inactive: -0.005	inactive: -0.085	inactive: 0.004
SHCBP1 (UniProt Q8NEM2)	inactive: -0.016	inactive: 0.003	inactive: 0.041	inactive: -0.041	inactive: -0.044	inactive: 0.027	inactive: -0.091	inactive: 0.022	inactive: 0.027	inactive: 0.019	inactive: 0.001	inactive: -0.122	inactive: -0.043	inactive: 0.012	inactive: -0.084	inactive: 0.049	inactive: -0.003	inactive: 0.088	inactive: -0.015	inactive: 0.055
SH3GL3 isoform 3 (UniProt Q99963)	inactive: 0.08	inactive: 0.012	inactive: 0.063	inactive: -0.032	inactive: -0.049	inactive: -0.051	active: -0.761	inactive: 0.33	inactive: -0.008	inactive: 0.035	inactive: -0.263	inactive: -0.14	inactive: 0.024	inactive: -0.063	inactive: 0.15	inactive: 0.072	inactive: -0.041	inactive: -0.076	inactive: 0.09	inactive: 0.041
SGTA (UniProt O43765)	inactive: 0.006	inactive: 0.001	inactive: 0.122	inactive: 0.023	inactive: 0.008	inactive: -0.023	inactive: 0.009	inactive: -0.022	inactive: 0.003	inactive: -0.01	inactive: 0.004	inactive: 0.013	inactive: 0.001	inactive: -0.009	inactive: -0.026	inactive: -0.021	inactive: -0.001	inactive: 0.01	inactive: -0.001	inactive: -0.02
SF3A1 (UniProt Q15459)	inactive: -0.022	inactive: -0.001	inactive: 0.016	inactive: 0.052	inactive: 0.008	inactive: 0.015	inactive: -0.105	inactive: 0.084	inactive: -0.006	inactive: 0.008	inactive: -0.027	inactive: 0.02	inactive: -0.023	inactive: 0.004	inactive: 0.004	inactive: 0.012	inactive: 0.006	inactive: -0.006	inactive: 0.004	inactive: -0.009
SETDB1 (UniProt Q15047)	inactive: 0.045	inactive: 0	inactive: 0.127	inactive: 0.039	inactive: 0.079	inactive: -0.062	inactive: -0.173	inactive: 0.04	inactive: -0.021	inactive: 0.012	inactive: -0.085	inactive: 0.077	inactive: -0.021	inactive: -0.057	inactive: -0.005	inactive: -0.03	inactive: 0.04	inactive: -0.001	inactive: 0.121	inactive: 0.075
SERPINH1 (UniProt P50454)	inactive: 0.023	inactive: -0.012	inactive: -0.019	inactive: 0.016	inactive: 0.008	inactive: -0.008	inactive: -0.078	inactive: 0.028	inactive: -0.017	inactive: 0	inactive: -0.014	inactive: 0.064	inactive: -0.019	inactive: -0.01	inactive: 0.033	inactive: -0.02	inactive: 0.009	inactive: 0.002	inactive: 0.026	inactive: -0.003
SKA1 (UniProt Q96BD8)	inactive: -0.004	inactive: -0.01	inactive: -0.017	active: -0.234	inactive: -0.121	inactive: 0.003	inactive: -0.167	inactive: 0.021	inactive: 0.071	inactive: 0.066	inactive: -0.046	inactive: -0.064	inactive: 0.001	inactive: 0.015	inactive: -0.008	inactive: 0.129	inactive: -0.055	inactive: -0.017	inactive: 0.017	inactive: -0.006
SFSWAP isoform 2 (UniProt Q12872)	inactive: 0.043	inactive: -0.012	inactive: 0.01	inactive: 0.028	inactive: -0.027	inactive: -0.005	inactive: -0.005	inactive: 0.014	inactive: -0.007	inactive: -0.019	inactive: -0.152	inactive: 0.01	inactive: -0.036	inactive: 0.011	inactive: 0.092	inactive: 0.059	inactive: -0.026	inactive: -0.059	inactive: 0.039	inactive: -0.043
SF3A2 (UniProt Q15428)	inactive: -0.053	inactive: 0.019	inactive: -0.049	inactive: -0.026	inactive: -0.008	inactive: 0.037	inactive: -0.262	inactive: 0.108	inactive: -0.008	inactive: 0.013	inactive: 0.014	inactive: -0.011	inactive: -0.01	inactive: 0.003	inactive: -0.023	inactive: 0.01	inactive: 0.042	inactive: 0.003	inactive: 0.012	inactive: -0.022
SHMT1 (UniProt P34896)	inactive: 0.015	inactive: 0.023	inactive: -0.009	inactive: 0.005	inactive: 0.016	inactive: 0.013	inactive: -0.031	inactive: 0.036	inactive: 0.024	inactive: -0.016	inactive: -0.011	inactive: 0.017	inactive: 0.013	inactive: 0.006	inactive: 0.072	inactive: -0.016	inactive: -0.036	inactive: -0.018	inactive: -0.001	inactive: -0.044
SGO1 (UniProt Q5FBB7)	inactive: 0.024	inactive: 0.031	inactive: 0.011	inactive: 0.014	inactive: -0.016	inactive: -0.125	inactive: -0.087	inactive: 0.043	inactive: -0.045	inactive: 0.029	inactive: -0.011	inactive: -0.038	inactive: -0.053	inactive: -0.01	inactive: 0.017	inactive: -0.01	inactive: -0.019	inactive: 0.116	inactive: -0.014	inactive: 0.01

Two entries from above, in markdown.

| Target | log2 fold change (vemurafenib) | log2 fold change [1] | log2 fold change (barasertib) | log2 fold change [2] | log2 fold change (volasertib) | log2 fold change [3] | log2 fold change [4] | log2 fold change [5] | log2 fold change (saracatinib) | log2 fold change (sotrastaurin) | log2 fold change (alvocidib) | log2 fold change (Tubastatin A) | log2 fold change [6] | log2 fold change (defactinib) | log2 fold change [7] | log2 fold change (encorafenib) | log2 fold change [8] | log2 fold change (alisertib) | log2 fold change [9] | log2 fold change (gefitinib) |
| --- | --- | --- | --- | --- | --- | --- | --- | --- | --- | --- | --- | --- | --- | --- | --- | --- | --- | --- | --- | --- |
| SF3A1 (UniProt Q15459) | inactive: -0.022 | inactive: -0.001 | inactive: 0.016 | inactive: 0.052 | inactive: 0.008 | inactive: 0.015 | inactive: -0.105 | inactive: 0.084 | inactive: -0.006 | inactive: 0.008 | inactive: -0.027 | inactive: 0.02 | inactive: -0.023 | inactive: 0.004 | inactive: 0.004 | inactive: 0.012 | inactive: 0.006 | inactive: -0.006 | inactive: 0.004 | inactive: -0.009 |
| SETDB1 (UniProt Q15047) | inactive: 0.045 | inactive: 0 | inactive: 0.127 | inactive: 0.039 | inactive: 0.079 | inactive: -0.062 | inactive: -0.173 | inactive: 0.04 | inactive: -0.021 | inactive: 0.012 | inactive: -0.085 | inactive: 0.077 | inactive: -0.021 | inactive: -0.057 | inactive: -0.005 | inactive: -0.03 | inactive: 0.04 | inactive: -0.001 | inactive: 0.121 | inactive: 0.075 |
